{"source": "paper PMC12548414", "note": "Hit rate of the full screen: of about 1,600 compounds, about 20 (1%) showed an effect of 50% or more. The list shows a part of the results."}
{"tested_on": "T1, E. coli pLC1021 (luc-trpAt trans-translation reporter)", "T1 construct": "pLC1021 luc-trpAt reporter strain", "parameters": "species or system Escherichia coli pLC1021; luc-trpAt non-stop luciferase reporter; luminescence rises when trans-translation is inhibited; normalized to KKL-35 and DMSO", "conditions": "reporter signal, KKL-35 = 100%; rise means trans-translation inhibition; 2 h, 20 µM", "in_short": "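Luminescence (560 nm, 10 min after Bright-Glo) reports luciferase that escapes trans-translation tagging, measured after 2 h room-temperature treatment with 20 µM compound. Each plate was scaled between DMSO (negative) and 20 µM KKL-35 (positive) controls. Compounds scoring one standard deviation above the median counted as positive; at least two biological repeats.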", "units": {"% activation": "%"}}
{"smiles": "CC(C)c1ccc(-c2cncc(N3CCN(c4ccncc4)CC3)n2)cc1", "note": "[KKL-1773]", "% activation": 3}
{"smiles": "CN(c1ccccc1)c1ccc([N+](=O)[O-])c2nonc12", "note": "[KKL-1467]", "% activation": 0}
{"smiles": "Cc1cccc(OCC(O)Cn2c(=N)n(CCN3CCCCC3)c3ccccc32)c1", "note": "(stereo not drawn) [KKL-1515]", "% activation": 16}
{"smiles": "Cc1cc2c(cc1C)N(Cc1ccc(C(C)(C)C)cc1)C1=NCCCN12", "note": "[KKL-0358]", "% activation": 0}
{"smiles": "COc1cc(SC)ccc1C(=O)N[C@H]1CCN2C(=O)N(c3ccc(Cl)cc3)C(=O)[C@@H]2C1", "note": "[KKL-1611]", "% activation": 0}
{"smiles": "c1ccc(-c2nc3c(c(N4CCN(Cc5cc6ccccc6[nH]5)CC4)n2)CCC3)cc1", "note": "[KKL-0483]", "% activation": 0}
{"smiles": "CCCCCCCCCn1c2c(c(=N)c3c1CCC3)CCCC2", "note": "[KKL-0894]", "% activation": 7}
{"smiles": "COc1cc(CNC23CC4CC(CC(C4)C2)C3)ccc1OCc1ccccc1", "note": "[KKL-0755]", "% activation": 4}
{"smiles": "COc1ccc(CN(CCCn2ccnc2)Cc2[nH]c3ccc(F)cc3c2C)cc1", "note": "[KKL-1036]", "% activation": 17}
{"smiles": "CCOC(=O)c1cc(-c2ccccc2)sc1N=C(S)NC(C)c1ccncc1", "note": "(stereo not drawn) [KKL-1534]", "% activation": 0}
{"smiles": "CC(C)N(C(=O)CNc1ccccc1Nc1ccccc1)c1ccccc1", "note": "[KKL-1812]", "% activation": 1}
{"smiles": "Nc1ccccc1Nc1ccc2c(c1)OCO2", "note": "[KKL-1857]", "% activation": 2}
{"smiles": "CC(C)Cc1cc(C(=O)N2CCc3c([nH]c4ccccc34)C2c2ccccc2F)nc(N)n1", "note": "(stereo not drawn) [KKL-0668]", "% activation": 0}
{"smiles": "COC(=O)[C@@H]1Cc2c([nH]c3ccccc23)[C@H]2C[C@@H](N3CCOCC3)C[C@@H](c3ccc(OC(F)(F)F)cc3)N21", "note": "[KKL-0313]", "% activation": 4}
{"smiles": "COC(=O)COc1cccc(NC(=O)c2ccc(Cl)cc2)c1", "note": "[KKL-1563]", "% activation": 7}
{"smiles": "O=[N+]([O-])c1cc(O)c2ncccc2c1", "note": "[KKL-0003]", "% activation": 46}
{"smiles": "COC(=O)C(Oc1ccc2c(c1)oc(=O)c1cc(OC)ccc12)c1ccccc1", "note": "(stereo not drawn) [KKL-1506]", "% activation": 0}
{"smiles": "CCn1cc(C(=O)O)c(=O)c2cc(F)c(N3CCNCC3)cc21", "note": "[KKL-0831]", "% activation": 56}
{"smiles": "CSCCCNC(=O)C1CCN(c2nc(-c3ccccc3)nc3c2CCC3)CC1", "note": "[KKL-0658]", "% activation": 2}
{"smiles": "C=CCOc1ccccc1NC(=O)c1cnc(SC)nc1", "note": "[KKL-0671]", "% activation": 0}
{"smiles": "CC(C)OC(=O)COc1ccc(-c2cnc(N(C)CCc3ccncc3)nc2)cc1", "note": "[KKL-1723]", "% activation": 3}
{"smiles": "Cc1ccc(CN(CCCn2ccnc2)Cc2ccc(Cl)c(Cl)c2)o1", "note": "[KKL-1222]", "% activation": 14}
{"smiles": "O=C(CC1Sc2ccc(Cl)cc2NC1=O)Nc1ccc([N+](=O)[O-])cc1", "note": "(stereo not drawn) [KKL-0720]", "% activation": 15}
{"smiles": "COc1ccc(CC(=O)Nc2c(-c3cccs3)nc3cc(C)ccn23)cc1", "note": "[KKL-1805]", "% activation": 0}
{"smiles": "O=C(CC(O)(C(F)(F)F)C(F)(F)F)Nc1ccc(Cl)c(Cl)c1", "note": "[KKL-0624]", "% activation": 36}
{"smiles": "Cc1ccc(C(=O)/C=C\\C(=O)c2ccc(C)cc2)cc1", "note": "[KKL-1050]", "% activation": 0}
{"smiles": "CC(=O)Nc1nc(NC(=O)/C=C/c2ccccc2)n(-c2ccccc2)n1", "note": "[KKL-1060]", "% activation": 18}
{"smiles": "O=c1cc(-c2c(F)c(F)c(F)c(F)c2F)oc2ccccc12", "note": "[KKL-0844]", "% activation": 0}
{"smiles": "COc1ccccc1OCCCCn1c(C2CC2)nc2ccccc21", "note": "[KKL-1722]", "% activation": 5}
{"smiles": "CCCCc1cc(=O)oc2cc(OCC(=O)OCc3ccccc3)c(Cl)cc12", "note": "[KKL-0718]", "% activation": 0}
{"smiles": "COc1cc(C)c(-c2csc(NC(=O)c3cnc(SC)nc3)n2)cc1C", "note": "[KKL-0466]", "% activation": 0}
{"smiles": "COc1cc(/C=C/C(=O)c2ccc(F)cc2)cc(OC)c1OC", "note": "[KKL-1090]", "% activation": 0}
{"smiles": "O=C1C(O)=C(c2ccccc2)C2CCCN12", "note": "(stereo not drawn) [KKL-1601]", "% activation": 0}
{"smiles": "CCOC(=O)COc1ccc(C(=O)NC2CCCCC2)cc1", "note": "[KKL-1468]", "% activation": 1}
{"smiles": "Cc1cccc(-c2cc3ncccc3c(NCc3ccccn3)n2)c1", "note": "[KKL-0684]", "% activation": 0}
{"smiles": "CCOC(=O)c1c(NC(=O)COc2ccc(C(C)C)cc2)sc2c1CCC2", "note": "[KKL-1530]", "% activation": 0}
{"smiles": "Cc1cc2nc(C3CCCN(C(=O)c4[nH]c5ccccc5c4C)C3)cc(C(F)(F)F)n2n1", "note": "(stereo not drawn) [KKL-0511]", "% activation": 0}
{"smiles": "Cc1cc(C)n2nc(C(=O)N3CCc4c([nH]c5ccccc45)C3c3ccc(F)cc3)cc2n1", "note": "(stereo not drawn) [KKL-1149]", "% activation": 3}
{"smiles": "COc1ccc(CN2CCCCC2C(=O)Nc2ccc(-n3cccn3)cc2)c(F)c1", "note": "(stereo not drawn) [KKL-1153]", "% activation": 0}
{"smiles": "CCC(C)NCCCOc1ccc(Cl)c2ccccc12", "note": "(stereo not drawn) [KKL-1428]", "% activation": 0}
{"smiles": "O=C(NC1CCCCC1)c1cccc(N2C(=O)c3cccc4c([N+](=O)[O-])ccc(c34)C2=O)c1", "note": "[KKL-1416]", "% activation": 0}
{"smiles": "CC12CC3CC(C)(C1)CC(C(=O)Nc1nc4ccccc4s1)(C3)C2", "note": "[KKL-1343]", "% activation": 2}
{"smiles": "Cc1cc2c(cc1C)C(O)CC1(CCN(CC(O)c3ccc4c(c3)CCC4)CC1)O2", "note": "(stereo not drawn) [KKL-0699]", "% activation": 0}
{"smiles": "Cc1nn(-c2ccccc2)c2nc(O)c(CNC(c3ccccc3)c3ccco3)cc12", "note": "(stereo not drawn) [KKL-0350]", "% activation": 0}
{"smiles": "COC(=O)[C@@H]1Cc2c([nH]c3ccccc23)[C@H]2C[C@H](NCCN3CCOCC3)C[C@@H](c3ccc(OC(F)(F)F)cc3)N21", "note": "[KKL-0308]", "% activation": 6}
{"smiles": "Cc1ccc(NC(=O)CC2COc3ccccc3O2)cc1Cl", "note": "(stereo not drawn) [KKL-1586]", "% activation": 0}
{"smiles": "c1ccc(-c2csc(Nc3nc4cc5c(cc4s3)OCO5)n2)nc1", "note": "[KKL-1697]", "% activation": 0}
{"smiles": "O=C(Nc1nc2ccc(F)cc2s1)c1ccccn1", "note": "[KKL-0813]", "% activation": 0}
{"smiles": "O=C(Nc1cccc([N+](=O)[O-])c1)Nc1ccc(Cl)c(C(F)(F)F)c1", "note": "[KKL-1336]", "% activation": 0}
{"smiles": "O=C(/C=C/c1cn(CC(O)CN2CCCCCC2)c2ccccc12)c1cccs1", "note": "(stereo not drawn) [KKL-0443]", "% activation": 0}
{"smiles": "CCOC(=O)COc1ccc2cc(-c3nc4ccccc4s3)c(=O)oc2c1", "note": "[KKL-0772]", "% activation": 2}
{"smiles": "Cc1ccn2c(Nc3ccccc3)c(-c3ccccn3)nc2c1", "note": "[KKL-1521]", "% activation": 0}
{"smiles": "COc1ccc(C(=O)CCN2CCCC(C)C2)cc1", "note": "(stereo not drawn) [KKL-1093]", "% activation": 9}
{"smiles": "Cc1cccc2sc(NC(=O)c3ccc(C(C)(C)C)cc3)nc12", "note": "[KKL-1490]", "% activation": 2}
